Data as given in patent EP3572468B1, “CYANINE DYES AND THEIR USAGE FOR IN VIVO STAINING OF MICROORGANISMS” (PHILIPPS-UNIVERSITÄT MARBURG, priority 2018, dated 2019).
For at least one compound, name, drawing or mass did not settle the structure.

What was measured:
[1] = test system: Escherichia coli (E. coli) NEB5α; assay: Bacteria culture and staining: growth and FACS labeling of E. coli; type: cell-based; settings: 2.5 µM dye in culture medium, FACS at mid-exponential growth phase (OD600 = 2.0)
Description: Escherichia coli (E. coli) NEB5α (New England Biolabs) and antibiotic-resistant and -sensitive Klebsiella pneumoniae (K. pneumoniae) were cultured in Luria-Bertani (LB) solid medium (LB-Agar) overnight at 37°C. The source of the K. pneumoniae strands is of no relevance to the invention. The invention may be applied to all types of microorganisms (bacteria, viri, fungi etc.) or other cells, either contained within a sample or isolated from a sample. For staining, growth curve analysis and replating experiments bacteria were suspended in LB liquid medium at an OD600 nm of 1.0 and 800 µL were transferred into a culture tube containing 7.2 mL of LB liquid medium supplemented with DMSO or candidate dyes (2.5 µM) final concentration). Density of bacterial cultures was measured using an Ultrospec 10 Cell Density Meter with 600 nm LED source (Amersham Biosciences). […]
Bacteria and macrophages were washed with PBS prior to flow cytometry and analysed using a Guava easyCyte flow cytometer (Millipore). FCS3.0 files were analysed using Flowing Software (http://flowingsoftware.btk.fi/). Cells were first gated in the forward- / side-scatter plot to exclude debries, followed by quadrant gating in plots using the fluorescence channels as shown above. […] Propidium iodide signal was recorded in the yellow channel.

dsDNACT = settings: previously obtained results for DNA intercalators with the same DNA (dsDNACT); cited from earlier work
[2] = 480 nm; value used for concentration determination; cited from earlier work

SMILES: CC[n+]1c(-c2ccccc2)c2cc(N)ccc2c2ccc(N)cc21 [EtBr, ethidium bromide]
- fluorescent labeling of live bacteria (FACS) [1]: did not confer a pronounced fluorescence-shift
- Kd (dsDNACT): 15 µM
- extinction coefficient ε480nm [2]: 5600 M⁻¹ cm⁻¹
